Source: paper doi:10.1101/2025.10.27.684738
These are yes or no findings as the source states them, for the method shown. One block for each molecule: values may come before it.

Legend:
Assay in all cases: SEC
[1] = biological target: ANXA11 N-terminal domain (Nt, residues 1-191) (human) (UniProt P50995)
[2] = biological target: ANXA11 N-terminal domain p.D40G mutant (Nt_(D40G), residues 1-191) (human) (UniProt P50995)
[3] = biological target: T1, ANXA11 C-terminal domain (Ct, residues 201-505) (human) (UniProt P50995)
T1 sequence (chain, RED-NHS 2nd Generation fluorescent dye in the MST (labelling degree ~0.6)): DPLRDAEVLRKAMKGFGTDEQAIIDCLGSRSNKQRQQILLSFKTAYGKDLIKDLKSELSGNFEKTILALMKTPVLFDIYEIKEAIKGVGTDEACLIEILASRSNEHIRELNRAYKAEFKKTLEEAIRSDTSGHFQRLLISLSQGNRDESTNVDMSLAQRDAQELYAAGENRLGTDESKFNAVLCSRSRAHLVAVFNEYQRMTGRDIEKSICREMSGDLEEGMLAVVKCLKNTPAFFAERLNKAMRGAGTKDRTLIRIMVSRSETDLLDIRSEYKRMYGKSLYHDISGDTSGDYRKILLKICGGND

binding [1]: no binding
Molecule: ANXA11 N-terminal domain (Nt, residues 1-191) (from UniProt P50995 1-191) (domain or fragment)

binding [2]: no binding
Molecule: ANXA11 N-terminal domain p.D40G mutant (Nt_(D40G), residues 1-191) (from UniProt P50995 1-191) (domain or fragment)

binding [3]: no binding
B1: ANXA11 C-terminal domain (Ct, residues 201-505) (domain or fragment, UniProt P50995 201-505)
chain: T1 sequence (chain, RED-NHS 2nd Generation fluorescent dye in the MST (labelling degree ~0.6))
modifications: RED-NHS 2nd Generation fluorescent dye in the MST (labelling degree ~0.6)
